Test results from article PMC12010382.

Chains of the proteins cited; added tags and fusions are not shown. Lines headed by an entry give the natural chain unless they say otherwise; changes in a name come on top.
UniProt Q9SQR8: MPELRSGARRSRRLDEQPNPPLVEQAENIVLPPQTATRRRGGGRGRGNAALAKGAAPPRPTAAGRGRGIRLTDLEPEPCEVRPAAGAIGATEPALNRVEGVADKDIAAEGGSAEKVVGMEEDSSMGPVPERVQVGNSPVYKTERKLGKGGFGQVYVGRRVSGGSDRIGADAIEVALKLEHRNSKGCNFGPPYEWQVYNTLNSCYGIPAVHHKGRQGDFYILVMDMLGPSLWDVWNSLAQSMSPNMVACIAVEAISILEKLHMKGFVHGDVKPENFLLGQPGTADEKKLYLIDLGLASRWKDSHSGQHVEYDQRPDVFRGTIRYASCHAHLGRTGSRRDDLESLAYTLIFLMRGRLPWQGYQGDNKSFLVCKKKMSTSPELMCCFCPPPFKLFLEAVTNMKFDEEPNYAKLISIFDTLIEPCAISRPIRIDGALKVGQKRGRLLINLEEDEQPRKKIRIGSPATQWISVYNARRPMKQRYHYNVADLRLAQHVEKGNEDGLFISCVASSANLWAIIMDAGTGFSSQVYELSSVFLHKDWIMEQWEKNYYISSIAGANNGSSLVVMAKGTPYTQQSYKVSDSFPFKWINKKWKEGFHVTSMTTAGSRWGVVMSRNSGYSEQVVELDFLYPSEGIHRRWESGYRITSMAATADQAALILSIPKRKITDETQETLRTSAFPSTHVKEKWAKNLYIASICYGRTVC
UniProt Q43125: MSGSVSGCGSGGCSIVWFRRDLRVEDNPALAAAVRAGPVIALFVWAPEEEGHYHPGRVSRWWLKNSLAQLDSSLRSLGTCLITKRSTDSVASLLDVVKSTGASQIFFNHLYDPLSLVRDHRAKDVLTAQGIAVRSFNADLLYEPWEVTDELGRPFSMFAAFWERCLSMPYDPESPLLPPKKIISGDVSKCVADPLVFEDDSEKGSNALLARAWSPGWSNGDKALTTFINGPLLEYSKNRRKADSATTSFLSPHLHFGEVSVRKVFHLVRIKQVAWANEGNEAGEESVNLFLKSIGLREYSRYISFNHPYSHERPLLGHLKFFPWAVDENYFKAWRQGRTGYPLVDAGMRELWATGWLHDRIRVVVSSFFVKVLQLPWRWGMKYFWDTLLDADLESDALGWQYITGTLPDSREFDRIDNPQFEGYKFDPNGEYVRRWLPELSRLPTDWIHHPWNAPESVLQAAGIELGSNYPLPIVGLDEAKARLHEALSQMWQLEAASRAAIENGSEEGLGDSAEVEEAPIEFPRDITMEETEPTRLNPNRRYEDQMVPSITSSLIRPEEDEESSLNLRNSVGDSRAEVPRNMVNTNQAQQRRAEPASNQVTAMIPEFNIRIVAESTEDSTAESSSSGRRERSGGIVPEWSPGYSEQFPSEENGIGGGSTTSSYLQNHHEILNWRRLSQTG

Assays:
[1] = molecular target: PPK1-nYFP (Arabidopsis) (UniProt Q7EMY5); assay: split reporter; BiFC in tobacco leaves; nYFP and cYFP pair from one vector with H2B-mTagBFP as nuclear marker; imaged 72 h post-transfection; plants at 22°C or 44°C for 1 h before imaging
[2] = molecular target: Flag-PPK1 (Arabidopsis) (UniProt Q7EMY5); assay: co-IP; HEK293T cells co-expressing Myc-CRY1 and Flag-PPKs; dark or blue light (100 μmol m^-2 s^-1) for 1 h at 22°C or 44°C; immunoprecipitation with FLAG-conjugated beads; detection with anti-FLAG and anti-CRY1
[3] = molecular target: Flag-PPK3 (Arabidopsis) (UniProt Q9SQR8); assay: as above

Substance | binding [1] | binding [2] | binding [3]
CRY1-cYFP (from UniProt Q43125 1-681) | binds |  | 
Myc-CRY1 (from UniProt Q43125 1-681) |  | binds | binds

These are yes or no findings as the source states them, for the method shown. Binding seen in cells or lysates may run through a third protein. Binding can be weak; no strength is given.
